According to PubChem BioAssay (NCATS):
The shares of active, inactive and inconclusive entries below differ from those in the screen. Potencies of inconclusive entries are doubtful fits and often do not repeat. The source made the active and inactive calls. The call rests on the fitted dose curve.

By UniProt entry, the sequences of proteins in these tests, tags left out. Where a name states a change or a piece, a line headed by the entry shows the natural chain unless it says otherwise.
UniProt P00784: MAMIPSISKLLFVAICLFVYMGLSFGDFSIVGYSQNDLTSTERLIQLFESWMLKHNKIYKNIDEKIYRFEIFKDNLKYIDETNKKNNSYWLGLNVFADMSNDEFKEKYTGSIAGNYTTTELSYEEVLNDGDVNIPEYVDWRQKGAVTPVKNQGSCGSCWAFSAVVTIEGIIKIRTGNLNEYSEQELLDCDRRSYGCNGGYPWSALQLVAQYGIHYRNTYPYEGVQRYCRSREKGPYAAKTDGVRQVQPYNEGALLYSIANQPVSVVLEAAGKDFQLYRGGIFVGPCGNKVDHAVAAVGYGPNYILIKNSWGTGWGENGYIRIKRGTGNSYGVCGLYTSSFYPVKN

Biological target: Papain (Carica papaya) (UniProt P00784)
Experiment: Selectivity profile for inhibitors of NSP2Pro chikungunya virus (CHIKV): Papain Counterscreen (AID 1964104)
Settings: purified papain protease activity, enzymatic inhibition; series mostly up to 51 µM
Source text: PI: Natalia J. Martinez Ph.D.
National Center for Advancing Translational Sciences (NCATS),
National Institute of Health (NIH), Rockville, Maryland
Chikungunya virus (CHIKV) is a mosquito-borne RNA virus that has emerged as one of the most important global arboviral threats in the last decade. Although the first CHIKV vaccine has recently been FDA approved for use in healthy adults at increased risk, to date, there are no available antiviral drugs for CHIKV infection. CHIKV nsP2 protease plays a crucial role in the processing of the viral polypeptide precursor to release enzymes required for viral replication, thus making it a promising drug target for antiviral discovery. Here, we established a high-throughput pipeline to identify small molecule inhibitors of nsP2 proteolytic activity. The pipeline is composed of a suite of 1,536-well in vitro assays to support quantitative high-throughput (qHTS) screening campaigns. Specifically, we developed a fluorescence resonance energy transfer (FRET)-based assay using a fluorogenic peptide substrate encompassing an endogenous cleavage site and purified recombinant protease domain (nsP2pro). Using this assay, we interrogated ~37,000 small molecules, including those in drug repurposing libraries as well as chemically diverse and medicinal chemistry-friendly compounds. Hits were selected for follow-up validation against full-length nsP2 and an additional peptide. FRET-based 1,536-well assays for papain, hepatitis C virus NS3-4A, and human furin proteases were implemented to characterize compound selectivity. […] Novel compounds were identified to be potential nsP2 inhibitors and molecular docking analyses were performed to explain the binding mode of selected hits. In vitro antiviral activity was evaluated for a subset of compounds using a high-throughput CHIKV infection assay. To our knowledge, the pipeline presented here is unprecedented for CHIKV antiviral discovery research.
PROTOCOL TABLE (as described by Inglese J, Shamu CE and Guy RK. 2007)
SEQUENCE No. (e.g., 1, 2, 3, etc.); […] (e.g., Cells, Incubation, Reagent, etc.); VALUE; DESCRIPTION.
1a; Reagent; 3 uL; Papain in assay buffer.
1b; Reagent; 3uL; Assay buffer
2; Compound; 17 nL; Echo 655 acoustic dispenser (Beckman Coulter).
3; Incubation; 15 min; room temperature in the dark.
4: Reagent; 1 uL; Z-FR-AMC in assay buffer.
5; Incubation; 15 sec, 271g; centrifugation.
6; Detection; Fluorescence; time 0, Viewlux microplate reader (PerkinElmer) 355 nm excitation, 460 nm emission
7; Incubation; 10 min; room temperature
8; Detection; Fluorescence; time 10; ViewLux microplate reader (PerkinElmer), 355 nm excitation, 460 nm emission.
NOTES (numbers refer to sequence numbers above).
1a. Medium-binding black solid-bottom Greiner plates (cat. 789176-F). Dispense 3 uL of 1.33X papain in assay buffer (100 mM sodium acetate, pH 5.5, 5 mM dl-cysteine, 0.01% Tween-20 v/v) to columns 1, 2, 5-48 via Wako/Kalypsys dispenser. Papain (cat. P4762, Sigma) was dispensed to produce 5 nM final concentration. Enzyme solution kept on ice during experiment. Prepare papain as 50% glycerol (v/v) at final concentration of 10 mg/mL (427 uM, 100 U/mL). Sources: microplates (Greiner 789176-F), papain (Sigma P4762), sodium acetate (Bioworld 40120009-2), cysteine (Sigma 861677), Tween-20 (Sigma P1379), water (GIBCO 10977-015; Gibco).
1b. Dispense 3 uL of assay buffer (100 mM sodium acetate, pH 5.5, 5 mM dl-cysteine, 0.01% Tween-20 v/v) to columns 3 and 4 via Wako/Kalypsys dispenser. Assay buffer solution kept on ice during experiment.
2. Compound addition by single pin transfer (17 nL) using Wako pintool. Compound solutions in source plate: 169 nM to 10 mM DMSO stock solutions. Final concentrations: 0.664 nM to 39.2 uM, respectively. Final DMSO concentration: 0.5% (v/v).
3. RT incubation. Kalypsys lids used as microplate coverings. Protected from light.
4. […]
Potency means the concentration at half of the fitted maximal effect.

| Compound | Potency |
| --- | --- |
| C/C=C/C=C/C(=O)OC1CC/C=C/C(O)C(O)C(CCC)OC1=O (stereo not given) | inconclusive: 20.2 µM [inhibitor, partial curve] |
| Cc1cc(Nc2ccccc2C(=O)O)ccc1Cl | inconclusive: 18.3 µM [inhibitor, partial curve] |
| CO[C@]1(NC(=O)CSC(F)F)C(=O)N2C(C(=O)O)=C(CSc3nnnn3CCO)CO[C@H]21 | active: 6.51 µM |
| O=[N+]([O-])c1cc(S(=O)(=O)Nc2ccc(O)c3ccccc23)ccc1Cl | inconclusive: 23.1 µM [inhibitor, partial curve] |
| C/C(=N\NC(=O)C(NC(=O)c1ccccc1)c1n[nH]c(=O)c2ccccc12)c1cccc(Br)c1 (stereo not given) | inactive |
| Cc1c(S(=O)(=O)O)oc2c1C(=O)C(=O)c1c-2ccc2c1CCCC2(C)C | active: 18.3 µM |
| O=C(O)c1cc(O)c2c(c1)C(=O)c1cccc(O)c1C2=O | inconclusive: 20.6 µM [inhibitor, partial curve] |
| C=CC(=O)c1ccc2ccccc2c1 | inconclusive: 16.3 µM [inhibitor, partial curve] |
| O=C1c2ccccc2NC(c2ccc(-c3ccc(C(F)(F)F)cc3)o2)N1O (stereo not given) | inactive |
| O=C(Nc1cnc(N2CCN(c3ccccc3)CC2)c(C(=O)O)c1)c1cccs1 | inactive |
| C=CC(C)(C)c1[nH]c2ccccc2c1C1=C(O)C(=O)C(c2c[nH]c3c(CC=C(C)C)cccc23)=C(O)C1=O | active: 2.59 µM |
| CC/C(C)=C/C(=O)OC1C(OC2(C)CCC3C(C4C(C)CCC42)C3(C)C)OC(C)C(O)C1O (stereo not given) | inconclusive: 7.11 µM [inhibitor, partial curve] |
| CN1CCN(c2ccc(Nc3cc(-c4cccc(-n5ccc6cc(C7CC7)cc(F)c6c5=O)c4CO)cn(C)c3=O)nc2)CC1 | inconclusive: 16.3 µM [inhibitor, partial curve, poor fit] |
| CO/N=C(/C(=O)N[C@@H]1C(=O)N2C(C(=O)O)=C(CSC(=O)c3ccco3)CS[C@H]12)c1csc(N)n1 | inconclusive: 18.3 µM [inhibitor, partial curve] |
| CCCCS(=O)c1sc2nc(-c3cccs3)cc(-c3ccccc3)c2c1N (stereo not given) | inconclusive: 20.6 µM [inhibitor, partial curve, poor fit] |
| CC(C)Nc1cccnc1N1CCN(C(=O)c2cc3cc(NS(C)(=O)=O)ccc3[nH]2)CC1 | inactive |
| O=C(O)c1ccc(N2C(=O)/C(=C/c3ccc(-c4ccc([N+](=O)[O-])cc4)o3)C=C2c2ccccc2)cc1 | active: 18.3 µM |
| CC1=C(/C=C/C(C)=C/C=C/C(C)=C/C=C/C=C(C)/C=C/C=C(C)/C=C/C2=C(C)CCCC2(C)C)C(C)(C)CCC1 | inconclusive: 18.3 µM [inhibitor, partial curve, poor fit] |
| Oc1cccc(-c2c3nc(c(-c4cccc(O)c4)c4ccc([nH]4)c(-c4cccc(O)c4)c4nc(c(-c5cccc(O)c5)c5ccc2[nH]5)CC4)C=C3)c1 | inconclusive: 41 µM [inhibitor, single point] |
| CC/C=C\C/C=C\C/C=C\C/C=C\C/C=C\CCCC(=O)O | active: 33.5 µM |

2 successive compounds from above, for reference:

| Compound | Potency |
| --- | --- |
| CC(C)Nc1cccnc1N1CCN(C(=O)c2cc3cc(NS(C)(=O)=O)ccc3[nH]2)CC1 | inactive |
| O=C(O)c1ccc(N2C(=O)/C(=C/c3ccc(-c4ccc([N+](=O)[O-])cc4)o3)C=C2c2ccccc2)cc1 | active: 18.3 µM |

Additional structures

| Compound | Potency |
| --- | --- |
| CCC[C@H](NC(=O)[C@@H]1[C@H]2CCC[C@H]2CN1C(=O)[C@@H](NC(=O)[C@@H](NC(=O)c1cnccn1)C1CCCCC1)C(C)(C)C)C(=O)C(=O)NC1CC1 | active: 0.0259 µM |
| Cc1coc2c1C(=O)C(=O)c1c-2ccc2c1CCCC2(C)C | inconclusive: 18.3 µM [inhibitor, partial curve, poor fit] |
| O=C(O)[C@H]1C2CCC(CC2)[C@@H]1Nc1nc(-c2c[nH]c3ncc(F)cc23)ncc1F | inconclusive: 18.3 µM [inhibitor, partial curve] |
| N#CSc1cc(SC#N)c(N)nc1N | inconclusive: 13 µM [inhibitor, partial curve] |
| Cc1ccc(S(=O)(=O)Nc2cc(SCC(=O)O)c(O)c3ccccc23)cc1[N+](=O)[O-] | active: 18.3 µM |
| CC(=O)NCC(=O)N1[C@@H]2CC[C@H]1c1ccc(Nc3ncc(C(F)(F)F)c(NC4CCC4)n3)cc12 | inconclusive: 20.6 µM [inhibitor, partial curve] |
| Cc1coc2c1C(=O)C(=O)c1c-2ccc2c(C)cccc12 | inconclusive: 16.3 µM [inhibitor, partial curve, poor fit] |
| CCCCCCCCCCCCCCCCCC(=O)O | active: 20.6 µM |
| CCCCCCCCCCCCCCCCCCCC(=O)O | active: 20.6 µM |
| O=C1NC(Cc2c[nH]c3ccccc23)C(=O)NC1Cc1c[nH]c2ccccc12 (stereo not given) | inconclusive: 11.3 µM [inhibitor, partial curve, poor fit] |
| N#CN1CCC[C@@H](n2nc(-c3ccc(Oc4ccc(F)cc4F)cc3)c(C(N)=O)c2N)C1 | inconclusive: 18.3 µM [inhibitor, partial curve] |
| C/C(=C(\CCOC(=O)c1ccccc1)SS/C(CCOC(=O)c1ccccc1)=C(/C)N(C=O)Cc1cnc(C)nc1N)N(C=O)Cc1cnc(C)nc1N | inactive |
| O=C(Nc1ccc(N2CCN(CCOc3ccc(Cl)cc3)CC2)c(C(=O)O)c1)c1ccc(F)cc1 | inactive |
| COc1ccc(C(=O)N(Cc2ccco2)Cc2ccco2)c(O)c1 | inactive |
| O=C(O/N=C1\c2ccccc2-c2nc3ccccc3nc21)c1ccco1 | active: 2.59 µM |
| CCOC(=O)N1CCN(C(=O)Cn2sc3nc(C)cc(C)c3c2=O)CC1 | inactive |
| COC(=O)[C@]12CCC(C)(C)C[C@H]1[C@H]1C(=O)C=C3[C@@]4(C)C=C(C#N)C(=O)C(C)(C)[C@@H]4CC[C@@]3(C)[C@]1(C)CC2 | inconclusive: 20.6 µM [inhibitor, partial curve] |
| CC(C)c1ccc(S(=O)(=O)c2cnc(SCC(=O)Nc3ccc4c(c3)OCCO4)[nH]c2=O)cc1 | inconclusive: 25.9 µM [inhibitor, single point] |
| Cc1cc(Nc2ncnc3ccc(-c4ccc(CNCCS(C)(=O)=O)o4)cc23)ccc1Oc1ccn2ncnc2c1 | inconclusive: 14.6 µM [inhibitor, partial curve] |
| O=C(c1ccc(-c2ccco2)cc1)N1CCOC(c2ccccc2)C1 (stereo not given) | inactive |

Two of the compounds above, with each value named:
CCCCCCCCCCCCCCCCCC(=O)O
  Potency: active: 20.6 µM
CCCCCCCCCCCCCCCCCCCC(=O)O
  Potency: active: 20.6 µM
